The values are deposited in ChEMBL (CHEMBL3988442, “University of Dundee, Small-Polar-MMV Screening Library” (2021)).

Amino acid sequences for entries named in this document (tags omitted).
UniProt E9BF75, entry or part of it: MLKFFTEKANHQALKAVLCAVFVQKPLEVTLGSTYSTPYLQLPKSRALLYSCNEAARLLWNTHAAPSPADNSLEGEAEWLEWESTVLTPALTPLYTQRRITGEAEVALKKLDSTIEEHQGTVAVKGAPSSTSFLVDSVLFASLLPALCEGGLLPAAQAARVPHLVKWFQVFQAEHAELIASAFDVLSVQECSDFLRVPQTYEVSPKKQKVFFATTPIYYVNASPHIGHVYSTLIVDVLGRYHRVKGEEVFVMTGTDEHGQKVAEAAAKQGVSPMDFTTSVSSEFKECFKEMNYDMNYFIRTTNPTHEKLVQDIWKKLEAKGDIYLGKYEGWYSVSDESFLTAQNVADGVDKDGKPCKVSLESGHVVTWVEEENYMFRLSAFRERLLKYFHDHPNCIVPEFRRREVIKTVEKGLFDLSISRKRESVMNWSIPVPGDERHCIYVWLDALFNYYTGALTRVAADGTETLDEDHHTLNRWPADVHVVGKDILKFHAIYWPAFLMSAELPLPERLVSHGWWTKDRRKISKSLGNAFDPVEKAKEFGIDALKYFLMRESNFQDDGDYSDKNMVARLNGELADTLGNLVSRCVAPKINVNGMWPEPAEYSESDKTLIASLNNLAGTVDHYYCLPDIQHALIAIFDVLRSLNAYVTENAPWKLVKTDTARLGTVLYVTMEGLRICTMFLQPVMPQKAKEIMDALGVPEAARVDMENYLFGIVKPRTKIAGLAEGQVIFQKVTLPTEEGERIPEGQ

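Methionyl-tRNA synthetase (putative), Leishmania donovani (UniProt E9BF75). Primary screen of methionyl-tRNA synthetase; the read-out is not stated. The test concentration is not given. The values are filed as inhibition. About 68,000 compounds were tested under these conditions; 0.035% (about 24) showed 50% or more at least once.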

All values are in %. The record does not define 0% and 100%; most values in the screen are far below 50% and negative numbers occur (in some assays of this library far below -100). Compounds were drawn at random from those tested, without regard to their results.

compound,Inhibition
O=c1cc(Cn2ccnc2)nc2n1CCCN(Cc1ccsc1)C2,12.03
O=C(c1coc(-c2ccccc2)n1)N1CCCCC1,12.39
Cn1cc(C(=O)CC2CCCN2C(=O)c2ccc(Cl)o2)cn1 (stereo unspecified),1.799
Cc1csc2c(N3CCC(NCCCc4cnn(C)c4)CC3)ncnc12,10.03
OC1(CN2CCC(Cc3ncccn3)CC2)CCOCC1,0.3175
CN(C)Cc1cc(C2CCCN(S(=O)(=O)c3cccc(Cl)c3)C2)nn1C (stereo unspecified),15.82
Cc1n[nH]c(C)c1C1COCCN1C(=O)c1ccc2c(c1)CCO2 (stereo unspecified),3.741
Cc1nc(C)n(C2CCCN(C(=O)c3ccc(F)c(F)c3)C2)n1 (stereo unspecified),16.83
CC(CO)NC(=O)c1ccc2[nH]/c(=N\S(C)(=O)=O)sc2c1 (stereo unspecified),19.63
CC(C)Cc1nc(CN2CCC3(CCCO3)CCC2=O)no1 (stereo unspecified),15.64
O=C(NCc1cc[nH]n1)NCC(O)c1ccc(F)cc1F (stereo unspecified),17.48
Cc1[nH]nc(CCC(=O)N2CCOC(CCc3ccccc3)C2)c1C (stereo unspecified),3.686
O=c1cc(N2CCCC2)cnn1CCc1cccc(F)c1,9.722
c1cnc(N2CCOC3(CCN(CC4CCOC4)CC3)C2)nc1 (stereo unspecified),10.62
Cc1cccc(CN2CCN3C(=O)NC[C@H]3C2)n1,10.75
CC(C)CC(=O)N1CCCC2(CC(C(=O)Nc3ccccc3)=NO2)C1 (stereo unspecified),6.091
CCn1cc(C(=O)N2CCCN(c3cccnn3)CC2)c2ccccc21,8.042
CC(C)N1CC[C@@](C)(O)[C@H](n2ccc(=O)[nH]c2=O)C1,7.764
CC(C)c1nnsc1CNC(=O)C1CCN(C(C)C)CC1,5.042
CN(Cc1ccncc1)C1COC2(CCN(Cc3nccn3C)CC2)C1 (stereo unspecified),4.575
O=C(C1CCCC1)N1CCn2c(nnc2C2CCCNC2)C1 (stereo unspecified),9.714
CNc1cc(N2CCCC2CNCc2ccco2)ncn1 (stereo unspecified),17.71
CN1CCN(S(=O)(=O)c2ccc3c(c2)CN(C(=O)C(C)(C)C)CC3)CC1,14.52
Cc1nn(C)cc1NC(=O)CC1CCN(CCc2ccccc2)CC1,9.494
CC(C)C[C@H](NC(=O)Cc1csc(-c2cccc(Cl)c2)n1)C(=O)O,3.429
Cc1nn(CCO)c(C)c1CNC1CCCCc2ccccc21 (stereo unspecified),14.34
Cc1nn(C)c(N2CCOCC2)c1CNC1CCOc2ccccc21 (stereo unspecified),7.042
CCCSc1ncc(-c2nccn2CCO)cn1,18.73
O=C(c1ccccn1)N1CC[C@H]2C(=O)N(c3ccsc3)CCO[C@H]2C1,11.28
COCCCN1CCCC2(CCN(S(=O)(=O)c3cccnc3)C2)C1=O (stereo unspecified),8.871
CC1(CO)COC(Cc2ccc(Cl)cc2)=N1 (stereo unspecified),5.263
Cc1nc(O)c2c(n1)CCN(Cc1cc(C)sc1C)CC2,4.199
COCCCN(C)C(=O)c1nnn(-c2ccccc2Cl)c1C,16.04
CN(C)c1ccc(C(O)CNS(=O)(=O)C2CC2)cc1 (stereo unspecified),-2.878
CCc1csc(C2CCCN(C(=O)CCn3cc(C)cn3)C2)n1 (stereo unspecified),7.833
CC(C)(C)Cc1noc2ncc(C(=O)N3CCCSCC3)cc12,5.903
Cc1ccccc1CNC(=O)N1CCC(n2cncn2)CC1,18.8
O=C(NCCN1CCc2ccccc21)c1cc(-c2ccc(O)cc2)n[nH]1,12.1
Cc1nc2c(c(=O)[nH]1)CCN(C(=O)c1cccc3nccnc13)C2,6.771
Cc1cc(C)c2c(OCC(=O)NC(C)C)nn(C)c2n1,8.333
CC(Nc1cccc(COCc2ccco2)c1)C(=O)NC(N)=O (stereo unspecified),7.859
CCc1cc(N(C)Cc2noc(C(C)C)n2)nc(N2CCOCC2)n1,18.82
Cn1c(CCNC(=O)C2CCCN(C3CCOCC3)C2)n[nH]c1=O (stereo unspecified),3.125
CC1(C)COCCN1C(=O)CCc1nc(-c2ccc(Cl)cc2)no1,10.99
COC1(CNC(=O)NCc2ccccc2)CCSC1 (stereo unspecified),12.93
CN1CCO[C@@H]2CN(C(=O)c3ccc4[nH]ccc4c3)CC[C@@H]2C1,8.964
Cc1ccccc1N1CCCN(C(=O)c2cn(C)c3ccccc23)CC1,8.042
Cc1cccn2c(=O)cc(CN3CCCC3Cn3cncn3)nc12 (stereo unspecified),12.1
Cc1ccc(N2CCCC(NCc3cscn3)C2)nn1 (stereo unspecified),6.536
CCOCc1nc2c(c(N(C)Cc3nonc3C)n1)CCNCC2,6.832
CC(C)N1CCCCC1CCn1cnc2cc(C(F)(F)F)ccc2c1=O (stereo unspecified),17.02
COCCc1noc(-c2cc(Cl)c3c(c2)OCCCO3)n1,14.5
CC(=O)N1CCN(c2ccccc2CNc2ccc(C)cn2)CC1,5.85
CS(=O)(=O)N1CCOC2(CCN(c3nccs3)CC2)c2ccccc21,9.343
O=C1CCN(Cc2cnc3c(-c4ccccc4)cnn3c2)CCN1,13.01
CC(=O)N1CCCCC1c1nc2c(c(NC3CCCC3)n1)CN(C)CC2 (stereo unspecified),12
Cc1cccc(N2CCN(CCC(=O)NCc3cccnc3)CC2)c1,10.03
COCCc1noc(-c2cn(Cc3ccccc3C)nn2)n1,15.08
Cc1nn(C)c2c(N3CCN(C(=O)C4CCCCC4)CC3)ncnc12,-26.38
O=C(c1cccs1)N1CCOCC2(C1)CN(c1ccccc1)C(=O)CO2 (stereo unspecified),9.589
CC(C)N1CC(C(=O)NCc2ccc(S(=O)(=O)N(C)C)cc2)CC1=O (stereo unspecified),14.33
CCc1n[nH]c(C2CN(C(=O)Cc3ccc(C)nc3)CCO2)n1 (stereo unspecified),2.174
CCCN1CCC(Cc2noc(-c3cccnc3OC)n2)CC1,14.61
c1ccc(-c2cc(CN3CCc4cncnc4C3)on2)cc1,11.63
COc1cc(C(=O)N2CC[C@@H](NC(=O)c3ccccn3)[C@H](O)C2)ccn1,2.793
COCC1CN(C(=O)[C@H]2CCCO2)Cc2nnn(CC3CC3)c21 (stereo partly specified),7.246
CCN(CC)S(=O)(=O)CC(=O)N1CCc2ccc(Cl)cc21,-40.34
O=C(c1ccc(-n2ccnn2)cc1)N(CC1CC1)c1cccnc1,10.29
CC(C)NC(=O)N1CCN(CC2CC2)CC2(CC(=O)N(C)C2)C1 (stereo unspecified),8.571
Brc1cnc(NCCCOCC2CCOCC2)nc1,7.102
COc1ccc(-n2cc(CCO)cn2)cc1C,14.63
CNC(=O)c1cn2cc(-c3ccccc3Cl)n(CC3CC3)c(=O)c2n1,5.627
CCN(CC)S(=O)(=O)N1CCCC(c2ccc(C(=O)O)cc2)C1 (stereo unspecified),11.23
Cn1cncc1CN1CCc2nc3sccc3c(=O)n2CC1,14.78
O=C(c1ccc(-n2cncn2)cc1)N1CCN(c2cnccn2)CC1,24.73
CC(C)C(=O)N1CCN(CCOc2cccc(C#N)c2)CC1,5.801
Cc1cnn(CCNCc2ccc(OCc3noc(C)n3)cc2)c1,18.57
O=C(CCCNC(=O)C1CCCO1)Nc1ccc(Cl)cc1 (stereo unspecified),4.301
Cc1cnn(C2CCCN(C(=O)c3ccccc3-n3cnnn3)C2)c1 (stereo unspecified),9.227
CC(C)CNC(=O)C1=NOC2(CCN(Cc3ccoc3)C2)C1 (stereo unspecified),1.639
CCOCC1CN(Cc2cnn(C)c2)Cc2cnn(C)c21 (stereo unspecified),5.882
COc1cccc(-n2cc(CN(C)C(=O)c3cnc(O)cn3)cn2)c1,13.83
O=C1N(CCc2ccccc2)CCCC1(O)CNCc1ccc(F)cc1 (stereo unspecified),2.847
COCc1ccc(C(=O)N2CCCN(C(=O)OCC(C)C)CC2)cc1,8.075
CNC(=O)CN1CCOCC2(CN(CCC(F)(F)F)CCO2)C1 (stereo unspecified),7.205
OC1CCN(CCNc2ncc3c(n2)CCN3c2ccccc2)CC1,7.829
Cc1ccnn1CCNC(=O)c1cnc(N(C)C)nc1,10.25
COCCN1CCC(c2cncc(-c3cccc(Cl)c3)n2)CC1,22.01
O=C(CSCc1ccncc1)NCc1csc(Br)c1,20.22
Cc1c(Cl)c(C(=O)N2C[C@@H](C(=O)O)[C@H](c3cccnc3)C2)nn1C,3.474
Cc1cc(N2CCCC3(CN(C)C(=O)O3)C2)c2cc3c(cc2n1)OCO3 (stereo unspecified),5.81
CC(C)(C)C(=O)N1CCC2(CC1)CC(Oc1ccccc1)CO2 (stereo unspecified),4.511
Cn1cncc1CN1CCOC(Cc2ccccc2)C1 (stereo unspecified),14.89
O=C1CC(N(C(=O)c2ccc(F)c(F)c2)C2CC2)C(=O)N1 (stereo unspecified),17.75

Repeated from the top, 10 entries:

- O=c1cc(Cn2ccnc2)nc2n1CCCN(Cc1ccsc1)C2 | 12.03%
- O=C(c1coc(-c2ccccc2)n1)N1CCCCC1 | 12.39%
- Cn1cc(C(=O)CC2CCCN2C(=O)c2ccc(Cl)o2)cn1 (stereo unspecified) | 1.799%
- Cc1csc2c(N3CCC(NCCCc4cnn(C)c4)CC3)ncnc12 | 10.03%
- OC1(CN2CCC(Cc3ncccn3)CC2)CCOCC1 | 0.3175%
- CN(C)Cc1cc(C2CCCN(S(=O)(=O)c3cccc(Cl)c3)C2)nn1C (stereo unspecified) | 15.82%
- Cc1n[nH]c(C)c1C1COCCN1C(=O)c1ccc2c(c1)CCO2 (stereo unspecified) | 3.741%
- Cc1nc(C)n(C2CCCN(C(=O)c3ccc(F)c(F)c3)C2)n1 (stereo unspecified) | 16.83%
- CC(CO)NC(=O)c1ccc2[nH]/c(=N\S(C)(=O)=O)sc2c1 (stereo unspecified) | 19.63%
- CC(C)Cc1nc(CN2CCC3(CCCO3)CCC2=O)no1 (stereo unspecified) | 15.64%